{
  "source": "the supplement of paper PMC8728848",
  "binders": {"B1": {"name": "HA-00510 (Pseudomonas aeruginosa), Q02V39_PSEAB (protein)", "chain": "GVPIVNIATPNGAGLSNNHFRDYNVGANGLILNNATGKTQGTQLGGIILGNPNLKGQAAQVILNQVTGGNRSTLAGYTEVAGQSARVIVANPHGITCQGCGFINTPRATLTTGKPIMDGQRLERFQVDGGDIVVEGAELNVGNLEQFDLITRSAKLNAKLYAKNLNIVTGRNDVQADSLQATPRAADGSEKPQLAIDSSALGGMYAGAIRLVGTEQGVGVKLAGDMAASGGDIRIDASGKLSLAQASSQGDLKIAAQAVELNGKTYAGGSAEIRSAEELVNRQS"}},
  "test_in_all_cases": "glycan array binding signal (z-score within array); higher = stronger binding",
  "conditions_in_all_cases": "glycan notation: IUPAC condensed, linker removed",
  "key": {"[1]": {"target": "Neu5Ac(a2-6)Gal(b1-4)GlcNAc(b1-3)Gal(b1-4)GlcNAc(b1-3)Gal(b1-4)GlcNAc(b1-2)Man(a1-3)[Neu5Ac(a2-6)Gal(b1-4)GlcNAc(b1-3)Gal(b1-4)GlcNAc(b1-3)Gal(b1-4)GlcNAc(b1-2)Man(a1-6)]GalNAc", "outline": "(§1)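 Glycan array data were curated from 3228 arrays in the Consortium for Functional Glycomics database and kept only where the protein sequence was available. Glycan names were converted to IUPAC-condensed notation, and columns mapping to the same glycan were averaged. The binding signal is a within-array Z-score, averaged across arrays of the same protein sequence at different concentrations or buffers and across linkers. Negative Z-scores can be read as non-binding.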"}, "[2]": {"target": "Neu5Ac(a2-6)Gal(b1-4)GlcNAc(b1-3)Gal(b1-4)GlcNAc(b1-3)GalNAc", "outline": "as §1"}, "[3]": {"target": "Neu5Ac(a2-6)Gal(b1-4)GlcNAc(b1-3)Gal(b1-4)GlcNAc(b1-3)[Neu5Ac(a2-6)Gal(b1-4)GlcNAc(b1-3)Gal(b1-4)GlcNAc(b1-6)]GalNAc", "outline": "as §1"}, "[4]": {"target": "Neu5Ac(a2-6)Gal(b1-4)GlcNAc(b1-3)Gal(b1-4)GlcNAc(b1-6)[Gal(b1-3)]GalNAc", "outline": "as §1"}, "[5]": {"target": "Neu5Ac(a2-6)Gal(b1-4)GlcNAc(b1-3)Gal(b1-4)[Fuc(a1-3)]GlcNAc(b1-3)Gal(b1-4)[Fuc(a1-3)]GlcNAc", "outline": "as §1"}, "[6]": {"target": "Neu5Ac(a2-6)Gal(b1-4)GlcNAc(b1-3)GalNAc", "outline": "as §1"}, "[7]": {"target": "Neu5Ac(a2-6)Gal(b1-4)GlcNAc(b1-3)[Neu5Ac(a2-6)Gal(b1-4)GlcNAc(b1-6)]GalNAc", "outline": "as §1"}, "[8]": {"target": "Neu5Ac(a2-6)Gal(b1-4)GlcNAc(b1-6)GalNAc", "outline": "as §1"}, "[9]": {"target": "Neu5Ac(a2-6)Gal(b1-4)GlcNAc(b1-6)[Gal(b1-3)GlcNAc(b1-3)]Gal(b1-4)Glc", "outline": "as §1"}, "[10]": {"target": "Neu5Ac(a2-6)Gal(b1-4)GlcNAc(b1-6)[Gal(b1-3)]GalNAc", "outline": "as §1"}, "[11]": {"target": "Neu5Ac(a2-6)Gal(b1-4)GlcNAc6S", "outline": "as §1"}, "Neu5Ac(a2-6)GalNAc": {"target": "Neu5Ac(a2-6)GalNAc", "outline": "as §1"}, "[12]": {"target": "Neu5Ac(a2-6)GalNAc(b1-4)GlcNAc", "outline": "as §1"}, "[13]": {"target": "Neu5Ac(a2-6)GalNAc(b1-4)GlcNAc6S", "outline": "as §1"}, "[14]": {"target": "Neu5Ac(a2-6)GlcNAc(b1-4)GlcNAc", "outline": "as §1"}, "[15]": {"target": "Neu5Ac(a2-6)GlcNAc(b1-4)GlcNAc(b1-4)GlcNAc", "outline": "as §1"}, "Neu5Ac(a2-8)Neu5Ac": {"target": "Neu5Ac(a2-8)Neu5Ac", "outline": "as §1"}, "[16]": {"target": "Neu5Ac(a2-8)Neu5Ac(a2-3)Gal(b1-3)GalNAc(b1-4)[Neu5Ac(a2-3)]Gal(b1-4)Glc", "outline": "as §1"}, "[17]": {"target": "Neu5Ac(a2-8)Neu5Ac(a2-3)Gal(b1-3)GalNAc(b1-4)[Neu5Ac(a2-8)Neu5Ac(a2-3)]Gal(b1-4)Glc", "outline": "as §1"}, "[18]": {"target": "Neu5Ac(a2-8)Neu5Ac(a2-3)Gal(b1-4)Glc", "outline": "as §1"}, "[19]": {"target": "Neu5Ac(a2-8)Neu5Ac(a2-3)Gal(b1-4)GlcNAc", "outline": "as §1"}, "[20]": {"target": "Neu5Ac(a2-8)Neu5Ac(a2-3)[Gal(b1-3)GalNAc(b1-4)]Gal(b1-4)Glc", "outline": "as §1"}, "[21]": {"target": "Neu5Ac(a2-8)Neu5Ac(a2-3)[GalNAc(b1-4)]Gal(b1-4)Glc", "outline": "as §1"}, "[22]": {"target": "Neu5Ac(a2-8)Neu5Ac(a2-8)Neu5Ac", "outline": "as §1"}, "[23]": {"target": "Neu5Ac(a2-8)Neu5Ac(a2-8)Neu5Ac(a2-3)Gal(b1-4)Glc", "outline": "as §1"}, "[24]": {"target": "Neu5Ac(a2-8)Neu5Ac(a2-8)Neu5Ac(a2-3)[Gal(b1-3)GalNAc(b1-4)]Gal(b1-4)Glc", "outline": "as §1"}, "[25]": {"target": "Neu5Ac(a2-8)Neu5Ac(a2-8)Neu5Ac(a2-3)[GalNAc(b1-4)]Gal(b1-4)Glc", "outline": "as §1"}, "[26]": {"target": "Neu5Ac(a2-8)Neu5Ac(a2-8)Neu5Ac(a2-8)Neu5Ac(a2-3)[GalNAc(b1-4)]Gal(b1-4)Glc", "outline": "as §1"}, "[27]": {"target": "Neu5Ac(a2-8)Neu5Gc(a2-3)Gal(b1-4)GlcNAc", "outline": "as §1"}, "[28]": {"target": "Neu5Ac(b2-6)Gal(b1-4)GlcNAc", "outline": "as §1"}, "Neu5Ac(b2-6)GalNAc": {"target": "Neu5Ac(b2-6)GalNAc", "outline": "as §1"}, "[29]": {"target": "Neu5Ac9Ac(a2-3)Gal(b1-3)GlcNAc", "outline": "as §1"}, "[30]": {"target": "Neu5Ac9Ac(a2-3)Gal(b1-4)GlcNAc", "outline": "as §1"}, "[31]": {"target": "Neu5Ac9Ac(a2-6)Gal(b1-4)GlcNAc", "outline": "as §1"}, "[32]": {"target": "Neu5Gc(a2-3)Gal(b1-3)GlcNAc", "outline": "as §1"}, "[33]": {"target": "Neu5Gc(a2-3)Gal(b1-3)[Fuc(a1-4)]GlcNAc", "outline": "as §1"}, "Neu5Gc(a2-3)Gal(b1-4)Glc": {"target": "Neu5Gc(a2-3)Gal(b1-4)Glc", "outline": "as §1"}, "[34]": {"target": "Neu5Gc(a2-3)Gal(b1-4)GlcNAc", "outline": "as §1"}, "[35]": {"target": "Neu5Gc(a2-3)Gal(b1-4)GlcNAc(b1-3)Gal(b1-4)GlcNAc(b1-2)Man(a1-3)[Neu5Gc(a2-3)Gal(b1-4)GlcNAc(b1-3)Gal(b1-4)GlcNAc(b1-2)Man(a1-6)]Man(b1-4)GlcNAc(b1-4)GlcNAc", "outline": "as §1"}, "[36]": {"target": "Neu5Gc(a2-3)Gal(b1-4)[Fuc(a1-3)]GlcNAc", "outline": "as §1"}, "[37]": {"target": "Neu5Gc(a2-6)Gal(b1-4)GlcNAc", "outline": "as §1"}, "Neu5Gc(a2-6)GalNAc": {"target": "Neu5Gc(a2-6)GalNAc", "outline": "as §1"}, "[38]": {"target": "Neu5Gc(a2-8)Neu5Ac(a2-3)Gal(b1-4)GlcNAc", "outline": "as §1"}, "[39]": {"target": "Neu5Gc(a2-8)Neu5Gc(a2-3)Gal(b1-4)GlcNAc", "outline": "as §1"}, "[40]": {"target": "Neu5Gc(a2-8)Neu5Gc(a2-3)Gal(b1-4)GlcNAc(b1-3)Gal(b1-4)GlcNAc", "outline": "as §1"}, "[41]": {"target": "Neu5Gc(a2-8)Neu5Gc(a2-6)Gal(b1-4)GlcNAc", "outline": "as §1"}, "[42]": {"target": "Neu5Gc(b2-6)Gal(b1-4)GlcNAc", "outline": "as §1"}},
  "note": "The list shows a part of the results.",
  "data": [
    {"binder": "B1", "values": [
      {"measurement": "glycan array binding signal (z-score)", "setting": "[1]", "result": 3.69},
      {"measurement": "glycan array binding signal (z-score)", "setting": "[2]", "result": -0.602},
      {"measurement": "glycan array binding signal (z-score)", "setting": "[3]", "result": 2.75},
      {"measurement": "glycan array binding signal (z-score)", "setting": "[4]", "result": -0.459},
      {"measurement": "glycan array binding signal (z-score)", "setting": "[5]", "result": -0.154},
      {"measurement": "glycan array binding signal (z-score)", "setting": "[6]", "result": -0.318},
      {"measurement": "glycan array binding signal (z-score)", "setting": "[7]", "result": 0.241},
      {"measurement": "glycan array binding signal (z-score)", "setting": "[8]", "result": -0.547},
      {"measurement": "glycan array binding signal (z-score)", "setting": "[9]", "result": -1.06},
      {"measurement": "glycan array binding signal (z-score)", "setting": "[10]", "result": -0.19},
      {"measurement": "glycan array binding signal (z-score)", "setting": "[11]", "result": -0.013},
      {"measurement": "glycan array binding signal (z-score)", "setting": "Neu5Ac(a2-6)GalNAc", "result": -0.311},
      {"measurement": "glycan array binding signal (z-score)", "setting": "[12]", "result": -0.185},
      {"measurement": "glycan array binding signal (z-score)", "setting": "[13]", "result": 0.407},
      {"measurement": "glycan array binding signal (z-score)", "setting": "[14]", "result": -0.247},
      {"measurement": "glycan array binding signal (z-score)", "setting": "[15]", "result": -0.133},
      {"measurement": "glycan array binding signal (z-score)", "setting": "Neu5Ac(a2-8)Neu5Ac", "result": 0.611},
      {"measurement": "glycan array binding signal (z-score)", "setting": "[16]", "result": -0.026},
      {"measurement": "glycan array binding signal (z-score)", "setting": "[17]", "result": 0.659},
      {"measurement": "glycan array binding signal (z-score)", "setting": "[18]", "result": -0.106},
      {"measurement": "glycan array binding signal (z-score)", "setting": "[19]", "result": -0.473},
      {"measurement": "glycan array binding signal (z-score)", "setting": "[20]", "result": 0.223},
      {"measurement": "glycan array binding signal (z-score)", "setting": "[21]", "result": -0.094},
      {"measurement": "glycan array binding signal (z-score)", "setting": "[22]", "result": 0.563},
      {"measurement": "glycan array binding signal (z-score)", "setting": "[23]", "result": 0.254},
      {"measurement": "glycan array binding signal (z-score)", "setting": "[24]", "result": 0.198},
      {"measurement": "glycan array binding signal (z-score)", "setting": "[25]", "result": -0.401},
      {"measurement": "glycan array binding signal (z-score)", "setting": "[26]", "result": -0.164},
      {"measurement": "glycan array binding signal (z-score)", "setting": "[27]", "result": -1.15},
      {"measurement": "glycan array binding signal (z-score)", "setting": "[28]", "result": -0.145},
      {"measurement": "glycan array binding signal (z-score)", "setting": "Neu5Ac(b2-6)GalNAc", "result": -0.254},
      {"measurement": "glycan array binding signal (z-score)", "setting": "[29]", "result": 0.99},
      {"measurement": "glycan array binding signal (z-score)", "setting": "[30]", "result": 0.419},
      {"measurement": "glycan array binding signal (z-score)", "setting": "[31]", "result": -0.697},
      {"measurement": "glycan array binding signal (z-score)", "setting": "[32]", "result": 0.051},
      {"measurement": "glycan array binding signal (z-score)", "setting": "[33]", "result": -0.054},
      {"measurement": "glycan array binding signal (z-score)", "setting": "Neu5Gc(a2-3)Gal(b1-4)Glc", "result": 0.045},
      {"measurement": "glycan array binding signal (z-score)", "setting": "[34]", "result": -0.181},
      {"measurement": "glycan array binding signal (z-score)", "setting": "[35]", "result": -0.352},
      {"measurement": "glycan array binding signal (z-score)", "setting": "[36]", "result": -0.624},
      {"measurement": "glycan array binding signal (z-score)", "setting": "[37]", "result": 0.471},
      {"measurement": "glycan array binding signal (z-score)", "setting": "Neu5Gc(a2-6)GalNAc", "result": -0.059},
      {"measurement": "glycan array binding signal (z-score)", "setting": "[38]", "result": -0.4},
      {"measurement": "glycan array binding signal (z-score)", "setting": "[39]", "result": -0.585},
      {"measurement": "glycan array binding signal (z-score)", "setting": "[40]", "result": -1.26},
      {"measurement": "glycan array binding signal (z-score)", "setting": "[41]", "result": -0.771},
      {"measurement": "glycan array binding signal (z-score)", "setting": "[42]", "result": -0.019}
    ]}
  ]
}
